# No constants are given. Whether binding was seen depends on the method and setting. Binding seen in cells or lysates may run through a third protein. Sequences can lack the tags named with a protein.
# Protein sequences, listed by entry. Tags and fused reporters are not part of them. Lines headed by an entry give the natural chain unless they say otherwise; changes in a name come on top.
# UniProt P62508: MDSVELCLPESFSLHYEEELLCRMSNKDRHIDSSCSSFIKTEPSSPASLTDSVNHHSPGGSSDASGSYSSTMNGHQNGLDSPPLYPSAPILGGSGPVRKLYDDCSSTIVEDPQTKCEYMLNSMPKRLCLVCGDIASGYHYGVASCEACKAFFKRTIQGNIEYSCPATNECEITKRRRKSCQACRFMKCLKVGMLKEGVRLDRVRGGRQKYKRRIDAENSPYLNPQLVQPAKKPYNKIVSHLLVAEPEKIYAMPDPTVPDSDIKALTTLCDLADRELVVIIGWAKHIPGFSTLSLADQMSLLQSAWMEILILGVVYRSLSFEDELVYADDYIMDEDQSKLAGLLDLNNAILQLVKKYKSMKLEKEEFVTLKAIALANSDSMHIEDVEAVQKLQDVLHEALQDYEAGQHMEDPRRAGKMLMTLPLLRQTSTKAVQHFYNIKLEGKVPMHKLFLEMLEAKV
# Biological target: FLAG-ERRγΔH12 (UniProt P62508)
# Assay: co-IP; 293T cells co-transfected, treated with vehicle or GSK5182 (10 µM) for 18 h; lysates immunoprecipitated with anti-FLAG (FLAG-ERRγ forms as bait), immunoblotting for the tagged partner
binder,measurement,value
"HA-SMILE (small heterodimer partner-interacting leucine zipper protein) (protein, UniProt Q9NS37 1-354) MRHSLTKLLAASGSNSPTRSESPEPAATCSLPSDLTRAAAGEEETAAAGSPGRKQQFGDEGELEAGRGSRGGVAVRAPSPEEMEEEAIASLPGEETEDMDFLSGLELADLLDPRQPDWHLDPGLSSPGPLSSSGGGSDSGGLWRGDDDDEAAAAEMQRFSDLLQRLLNGIGGCSSSSDSGSAEKRRRKSPGGGGGGGSGNDNNQAATKSPRKAAAAAARLNRLKKKEYVMGLESRVRGLAAENQELRAENRELGKRVQALQEESRYLRAVLANETGLARLLSRLSGVGLRLTTSLFRDSPAGDHDYALPVGKQKQDLLEEDDSAGGVCLHVDKDKVSVEFCSACARKASSSLKM",binding,no binding

# From article PMC9820335
